Experimental findings from patent US20170174789A1 are described below.

For one assay, the target named is mTie2-hFc (mouse). In words: SPR Biacore 25C. (In general: SPR reads the build-up and loss of mass on a sensor chip optically.)
The target in a further assay is rTie2-hFc (rat). The assay is described as follows: SPR Biacore 25C.
The next assay concerns the target hTie1-hFc (human). The assay is described as follows: Luminex bead binding.

No constants are given. Whether binding was seen depends on the method and setting. Some entries that bind do so weakly or less than the wild type.

B1: H1H2332B (antibody, V domains shown)
VH: QVQLQESGPGLVKPSETLSLTCTVSGASISSYYWTWFRQPPGQGLEWIGYIYYSGSTNYNPSLKSRVTISVDTSMNQFSLKLTSVTAADTAVYYCARQGGYTSSLFDYWGQGTLVTVSS
VL: DIQMTQSPSSLSASVGDRVTITCRASQSISSYLNWYQQKPGKAPKLLIYVVSSLQSGVPSRFSGSGSGTDFTLTISSLQPEDFATYYCQQSYSIPWTFGQGTKVEIK
As to B1, the binding result in the assay with mTie2-hFc (mouse) is listed as “binds”; with rTie2-hFc (rat), “binds”; with hTie1-hFc (human), “no binding (tested: MFI >500 = significant binding)”.
